From publication PMC5892942
No constants are given. Whether binding was seen depends on the method and setting. In cells and extracts the contact can be indirect. Some entries that bind do so weakly or less than the wild type.

Amino acid sequences for entries named in this document (tags omitted).
UniProt P62993: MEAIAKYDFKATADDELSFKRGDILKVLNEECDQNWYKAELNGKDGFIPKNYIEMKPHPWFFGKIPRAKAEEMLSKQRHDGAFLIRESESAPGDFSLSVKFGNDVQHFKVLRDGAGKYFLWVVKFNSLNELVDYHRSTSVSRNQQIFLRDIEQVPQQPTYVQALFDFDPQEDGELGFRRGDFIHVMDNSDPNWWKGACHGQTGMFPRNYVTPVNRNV
UniProt Q6QME8: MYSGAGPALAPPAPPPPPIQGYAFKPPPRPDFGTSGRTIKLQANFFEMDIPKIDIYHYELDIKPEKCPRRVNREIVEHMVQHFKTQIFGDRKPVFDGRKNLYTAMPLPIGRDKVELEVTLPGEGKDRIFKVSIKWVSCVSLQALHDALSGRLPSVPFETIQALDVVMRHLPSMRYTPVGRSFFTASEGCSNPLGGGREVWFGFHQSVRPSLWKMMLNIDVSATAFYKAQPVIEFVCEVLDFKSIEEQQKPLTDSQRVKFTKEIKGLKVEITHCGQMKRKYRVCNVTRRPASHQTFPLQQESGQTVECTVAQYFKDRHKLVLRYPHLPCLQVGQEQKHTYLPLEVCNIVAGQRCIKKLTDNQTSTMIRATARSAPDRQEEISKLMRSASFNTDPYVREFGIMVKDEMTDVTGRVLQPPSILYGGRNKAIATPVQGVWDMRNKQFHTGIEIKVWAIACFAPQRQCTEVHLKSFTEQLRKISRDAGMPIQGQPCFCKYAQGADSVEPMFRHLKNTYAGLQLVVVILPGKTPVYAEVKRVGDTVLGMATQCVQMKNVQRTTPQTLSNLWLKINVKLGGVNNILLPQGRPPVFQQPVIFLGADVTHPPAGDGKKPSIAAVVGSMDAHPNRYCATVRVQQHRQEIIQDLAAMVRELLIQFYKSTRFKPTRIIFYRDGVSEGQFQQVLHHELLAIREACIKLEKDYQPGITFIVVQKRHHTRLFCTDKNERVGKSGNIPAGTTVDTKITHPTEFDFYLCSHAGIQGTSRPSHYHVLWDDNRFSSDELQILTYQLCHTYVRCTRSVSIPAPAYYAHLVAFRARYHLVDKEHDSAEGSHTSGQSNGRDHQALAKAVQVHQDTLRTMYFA

Target: GST-Grb2 (UniProt P62993)
Assay: pull-down; GST-Grb2 beads with cell extracts of virulent T. annulata-infected macrophages; endogenous AGO2 and PTP1B detected by western blot; only the target purified

AGO2 (from UniProt Q6QME8 1-860) was tested, and the binding was “binds”.
